Measurements from patent US20240358735A1, “THERAPEUTIC COMPOSITIONS AND RELATED METHODS” (BOYCE THOMPSON INSTITUTE FOR PLANT RESEARCH, INC., priority 2021, published 2024).

What follows are compounds tested on Cbr-cest-2 mutants (assay: Comparative metabolomics (HPLC-HRMS) of Cbr-cest-2 mutants versus wildtype C. briggsae (AF16)). Conditions: abundance of the metabolite in Cbr-cest-2 mutants compared to C. briggsae wildtype (AF16).

Question: With `C/C=C(\C)C(=O)OCC1OC(OC(=O)c2ccccc2N)C(OC(=O)CC(C)C)C(OP(=O)(O)O)C1O` (stereo not shown) [angl#54] as the compound, how does the “Cbr-cest-2 fold over WT (AF16), average of 4 repeats” value (shortened to “Cbr-cest-2 fold over WT (AF16)”) read?
Answer: 0.0006744

Question: How did the “Cbr-cest-2 fold over WT (AF16)” value turn out when `O=C(O[C@@H]1[C@@H](OP(=O)(O)O)[C@H](O)[C@@H](CO)O[C@H]1n1ccc2ccccc21)c1ccc[nH]1` [iglu#101, (2R,3R,4S,5R,6R)-5-hydroxy-6-(hydroxymethyl)-2-(1H-indol-1-yl)-4-(phosphonooxy)tetrahydro-2H-pyran-3-yl 1H-pyrrole-2-carboxylate] was run?
Answer: 0.0153

Question: With `C/C=C(\C)C(=O)OCC1OC(OC(=O)c2cccnc2)C(OC(=O)c2ccccc2)C(OP(=O)(O)O)C1O` (stereo not shown) [nglu#3] as the compound, how does the “Cbr-cest-2 fold over WT (AF16)” value read?
Answer: 0.0005537

Question: For `O=C(O[C@@H]1[C@@H](OP(=O)(O)O)[C@H](O)[C@@H](CO)O[C@H]1n1ccc2ccccc21)c1ccccc1` [iglu#121, (2R,3R,4S,5R,6R)-5-hydroxy-6-(hydroxymethyl)-2-(1H-indol-1-yl)-4-(phosphonooxy)tetrahydro-2H-pyran-3-yl benzoate], which “Cbr-cest-2 fold over WT (AF16)” value is on record?
Answer: 5.40E−05

Question: How did the “Cbr-cest-2 fold over WT (AF16)” value turn out when `O=C(OC[C@H]1O[C@@H](n2ccc3ccccc32)[C@H](OC(=O)c2cccnc2)[C@@H](OP(=O)(O)O)[C@@H]1O)c1cccnc1` [iglu#56] was run?
Answer: 0.001679

Question: `C/C=C(\C)C(=O)OC[C@H]1O[C@@H](OC(=O)c2ccccc2N)[C@H](OC(=O)c2ccccc2N)[C@@H](OP(=O)(O)O)[C@@H]1O` [iglu#88] was tested. Which “Cbr-cest-2 fold over WT (AF16)” value did it give?
Answer: 8.01E−05

Question: Which “Cbr-cest-2 fold over WT (AF16)” value does the source give for `C/C=C(\C)C(=O)OC[C@H]1O[C@@H](OC(=O)c2ccccc2N)[C@H](OC(=O)/C(C)=C/C)[C@@H](OP(=O)(O)O)[C@@H]1O` [angl#26] here?
Answer: 1.71E−05

Question: For `Nc1ccccc1C(=O)O[C@@H]1[C@@H](OP(=O)(O)O)[C@H](O)[C@@H](CO)O[C@H]1n1ccc2ccccc21` [iglu#401, (2R,3R,4S,5R,6R)-5-hydroxy-6-(hydroxymethyl)-2-(1H-indol-1-yl)-4-(phosphonooxy)tetrahydro-2H-pyran-3-yl 2-aminobenzoate], which “Cbr-cest-2 fold over WT (AF16)” value is on record?
Answer: 3.71E−05

Question: With `Nc1ccccc1C(=O)O[C@@H]1O[C@H](COC(=O)c2cccnc2)[C@@H](O)[C@H](OP(=O)(O)O)[C@H]1OC(=O)c1cccnc1` [angl#30] as the compound, how does the “Cbr-cest-2 fold over WT (AF16)” value read?
Answer: 0.002059

Question: How did the “Cbr-cest-2 fold over WT (AF16)” value turn out when `O=C(O[C@@H]1[C@@H](OP(=O)(O)O)[C@H](O)[C@@H](CO)O[C@H]1n1ccc2ccccc21)c1ccccn1` [iglu#601] was run?
Answer: 0.00961
